Results: publication PMC2075816
No constants are given. Whether binding was seen depends on the method and setting. For part of these data: In cells and extracts the contact can be indirect.

Experiments:
[1] = molecular target: chromogranin A (CgA) in phaeochromocytoma heat-stable fraction (HSF) (human) (UniProt P10645); assay: cross-linking; phaeochromocytoma HSF treated with DSS, then SDS-PAGE and Western blotting for CgA
[2] = molecular target: chromogranin A (CgA) in phaeochromocytoma heat-stable fraction (HSF) (human) (UniProt P10645); assay: ELISA; homosandwich ELISA: the same monoclonal antibody (B4E11 or A11) on the solid phase and biotinylated for detection, so a signal needs polyvalent CgA; M-ELISA conditions, room temperature, PBS with BSA, with 0.05% Tween 20 and also with Tween 20 left out of all buffers; heterosandwich controls (B4E11/A11-bio, A11/B4E11-bio) gave strong signals
[3] = molecular target: chromogranin A (CgA) in phaeochromocytoma heat-stable fraction (HSF) (human) (UniProt P10645); assay: cross-linking + ELISA; phaeochromocytoma HSF treated with DSS (25 mM stock, 30 min at 25 C, stopped with ammonium acetate), then analysed by homo- and heterosandwich ELISAs with B4E11 and A11

Measured: binding

B1: chromogranin A (CgA) in phaeochromocytoma heat-stable fraction (HSF) (protein, UniProt P10645 19-457)
chain: LPVNSPMNKGDTEVMKCIVEVISDTLSKPSPMPVSQECFETLRGDERILSILRHQNLLKELQDLALQGAKERAHQQKKHSGFEDELSEVLENQSSQAELKEAVEEPSSKDVMEKREDSKEAEKSGEATDGARPQALPEPMQESKAEGNNQAPGEEEEEEEEATNTHPPASLPSQKYPGPQAEGDSEGLSQGLVDREKGLSAEPGWQAKREEEEEEEEEAEAGEEAVPEEEGPTVVLNPHPSLGYKEIRKGESRSEALAVDGAGKPGAEEAQDPEGKGEQEHSQQKEEEEEMAVVPQGLFRGGKSGELEQEEERLSKEWEDSKRWSKMDQLAKELTAEKRLEGQEEEEDNRDSSMKLSFRARAYGFRGPGPQLRRGWRPSSREDSLEAGLPLQVRGYPEEKKEEEGSANRRPEDQELESLSAIEAELEKVAHQLQALRRG
no binding: all assays above
